Measured values: PubChem BioAssay AID540276 (National Center for Advancing Translational Sciences (NCATS), 2011)
Out of some 300,000 compounds screened, about 5,400 (1.8%) were called active. The shares of active, inactive and inconclusive entries below differ from those in the screen. Calls follow the shape of the full dose curve; tested in HEK293 cells. Where the call is inconclusive, the potency comes from a doubtful curve fit.

Assay: qHTS for inhibitors of binding or entry into cells for Marburg Virus
Details: Marburg virus pseudotyped entry inhibition, cell reporter; activity change, negative = inhibition: at 37.8 µM (top of the series) unless noted
% is scaled to controls: 0 for no effect and ±100 for the full control effect; potency is read from the fitted curve at half-maximal effect.

SMILES	activity change, negative = inhibition	Potency
CN(Cc1ccccc1)C(=O)COC(=O)/C=C/c1ccc2c(c1)OCO2	inactive: 25.9%	–
Cc1ccc(CCNC(=O)c2ccc(CSc3nc4ccncc4n3Cc3ccc(F)cc3)cc2)cc1	–	inconclusive: 17.8 µM [inhibitor, single point]
CC(CCc1ccccc1)NC(=O)c1ccc(C(=O)NC(C)CCc2ccccc2)cc1 (stereo not given)	–	inconclusive: 3.16 µM [inhibitor, full curve]
CCCCCCOc1ccc(N2C(=O)CC(N3CCC(C(=O)OCC)CC3)C2=O)cc1 (stereo not given)	inactive: 24.8%	–
CS(=O)(=O)Nc1ccc(C(=O)N2CCCCC2)cc1	–	inconclusive: 32.6 µM [inhibitor, single point]
COc1cc(C2CC(=O)N(CC(=O)Nc3ccccc3F)c3ccccc3S2)cc(OC)c1OC (stereo not given)	–	inconclusive: 35.5 µM [inhibitor, single point]
CNC(=O)c1cc(S(=O)(=O)N2CC(C)OC(C)C2)ccc1N1CCCCC1 (stereo not given)	inactive: -3.26%	–
COCCNC(=O)c1cccc(S(=O)(=O)N2CC3(C)CC2CC(C)(C)C3)c1 (stereo not given)	inactive: 2.66%	–
CCCCCOc1ccc(NC(=O)CSc2cccc3cccnc23)cc1	–	inconclusive: 28.2 µM [inhibitor, single point]
O=C(Nc1cccc([N+](=O)[O-])c1)N1CCCc2ccccc21	inactive: -0.27% [at 46.1 µM]	–
O=C(NCc1ccccc1)c1ccc(Br)cc1Br	inactive: 16.7%	–
O=C(NCC(c1cccs1)N1CCOCC1)c1ccc(Cl)s1 (stereo not given)	–	inconclusive: 2.91 µM [inhibitor, full curve]
Cc1ccc(NC2CCCN(C(=O)c3ccoc3C)C2)cc1C (stereo not given)	–	inconclusive: 35.5 µM [inhibitor, single point]
CC1=Nc2cc(C(=O)NCc3ccco3)ccc2Sc2ccc(C)cc21	inactive: -41.2%	–
O=C(Nc1cc(Sc2ccccn2)cc([N+](=O)[O-])c1)c1cccc(Cl)c1	–	inconclusive: 35.5 µM [inhibitor, single point]
Cc1ccsc1/C=C1/C(=O)NN(c2ccccc2)C1=O	–	inconclusive: 3.16 µM [activator, single point]
COc1cccc(CCc2nnc(CCC(=O)NC(C)c3c(C)nn(C)c3C)o2)c1 (stereo not given)	–	inconclusive: 2.82 µM [inhibitor, partial curve, poor fit]
COc1cc(/C=C2\CC/C(=C\c3cc(OC)c(OC)c(OC)c3)C2=O)cc(OC)c1OC	–	inconclusive: 35.5 µM [inhibitor, single point]
O=C(NCC1CCN(Cc2ccccc2F)CC1)Nc1cccc(Br)c1	–	inconclusive: 35.5 µM [inhibitor, single point]
Cc1nccn1CC(=O)N/N=C/c1ccccc1O	–	inconclusive: 25.9 µM [inhibitor, partial curve, poor fit]

Fetched by structure from the list above (2):
SMILES	activity change, negative = inhibition	Potency
Cc1ccc(CCNC(=O)c2ccc(CSc3nc4ccncc4n3Cc3ccc(F)cc3)cc2)cc1	–	inconclusive: 17.8 µM [inhibitor, single point]
O=C(NCC1CCN(Cc2ccccc2F)CC1)Nc1cccc(Br)c1	–	inconclusive: 35.5 µM [inhibitor, single point]
